Reference: PubChem BioAssay AID540256 (National Center for Advancing Translational Sciences (NCATS), 2011)
The whole screen tested about 300,000 compounds, of which about 3,700 (1.2%) were called active. The inconclusive results got no clear call from the source; some entries with a clear call stand among them for comparison. Calls follow the shape of the full dose curve; tested in HEK293 cells. Where the call is inconclusive, the potency comes from a doubtful curve fit.

test: qHTS for Inhibitors of binding or entry into cells for Lassa Virus; details: Lassa virus pseudotype entry inhibition, cell reporter; series mostly up to 37.9 µM; also: nearly all actives have a fitted effect of over 50% in size
Potency is read from the fitted curve at half-maximal effect.

Row | Structure (SMILES) | Potency
1 | Cc1cc(C)c2[nH]c(=O)c(CN(Cc3ccc4c(c3)OCO4)Cc3nnnn3C3CCCC3)cc2c1 | inconclusive: 29.1 µM [inhibitor, single point]
2 | Cc1cc(C)c2c(=O)cc(C(=O)Nc3ccc(C)c(Cl)c3)oc2c1 | inconclusive: 35.5 µM [activator, single point]
3 | CCOc1ccc2nc(NC(=O)C3CCCN(S(=O)(=O)c4cccs4)C3)sc2c1 (configuration not stated) | inconclusive: 15.8 µM [inhibitor, single point]
4 | CCOc1ccc(NC(=O)CN(C)C(=O)c2ccc(C)o2)cc1OCC | inconclusive: 35.5 µM [inhibitor, single point]
5 | O=[N+]([O-])c1c(NCCO)cc(N2CCN(Cc3ccc4c(c3)OCO4)CC2)c2nonc12 | inconclusive: 20 µM [inhibitor, single point]
6 | COc1ccc(-c2nc3c(-c4ccccc4)cnn3cc2C)cc1F | inactive
7 | COc1ccc(-c2noc(CSc3nnc(CCc4ccccc4)n3-c3ccccc3)n2)cc1OC | active: 4.11 µM
8 | O=Cc1nc(-c2ccccc2Cl)n2ccccc12 | inconclusive: 6.51 µM [inhibitor, single point]
9 | Cc1ccc(/C=C/C(=O)N2CCN(c3ccc(F)cc3)CC2)o1 | inactive
10 | CCc1ccc(-c2nc(CN3CCC(C(=O)NCCc4ccc(C)cc4)CC3)c(C)o2)cc1 | inconclusive: 2.82 µM [inhibitor, full curve, poor fit]
11 | C=CCn1c(C)cc(C(=O)CSc2n[nH]c(N)n2)c1C | inactive
12 | COc1cc(NC(=O)CN2CCN(c3ccccn3)CC2)cc(OC)c1OC | inconclusive: 25.1 µM [inhibitor, single point]
13 | CC(C)(C)c1ccc(-c2noc(CCC(=O)NCC3CCCO3)n2)cc1 (configuration not stated) | inconclusive: 14.6 µM [inhibitor, partial curve, poor fit]
14 | CC(=O)n1cc(C(C[N+](=O)[O-])SCCN)c2ccccc21 (configuration not stated) | inconclusive: 29.1 µM [inhibitor, single point]
15 | Cc1ccc(C)c(NC(=O)Cn2cnc3c(oc4ccccc43)c2=O)c1 | inactive
16 | O=C1NC(=O)C(CCc2ccncc2)(CCc2ccncc2)C(=O)N1Cc1ccccc1 | inconclusive: 35.5 µM [inhibitor, single point]
17 | COCOCCn1cc(CN2CCS(=O)(=O)N(Cc3ccc(-c4ccc(Cl)c(Cl)c4)cc3)C(C)C2=O)nn1 (configuration not stated) | inactive
18 | COC(=O)c1ccc(NC(=S)Nc2ccccn2)cc1 | inconclusive: 1.41 µM [activator, partial curve, poor fit]
19 | CCc1ccc(C2=CC(c3cccc(C)c3)n3c(nc4ccccc43)N2)cc1 (configuration not stated) | inconclusive: 12.6 µM [inhibitor, single point]
20 | O=C1c2ccccc2C(=O)N1CCCc1c[nH]c2ccc(Cl)cc12 | inconclusive: 35.5 µM [inhibitor, single point]
21 | Cc1ccc(C)c2nc(SCC(=O)N3CCCc4ccccc43)c(C#N)cc12 | inactive
22 | COc1cccc(NC(=S)N(CCCN2CCCC2)Cc2cccn2Cc2ccc(Cl)cc2)c1 | inconclusive: 25.1 µM [inhibitor, single point]
23 | Cc1cccc(C(=O)NNC(=S)NC(=O)c2ccccc2)c1 | inconclusive: 10 µM [inhibitor, single point]

Some of the entries so far, tab-delimited:
Row	Structure (SMILES)	Potency
7	COc1ccc(-c2noc(CSc3nnc(CCc4ccccc4)n3-c3ccccc3)n2)cc1OC	active: 4.11 µM
8	O=Cc1nc(-c2ccccc2Cl)n2ccccc12	inconclusive: 6.51 µM [inhibitor, single point]
9	Cc1ccc(/C=C/C(=O)N2CCN(c3ccc(F)cc3)CC2)o1	inactive
10	CCc1ccc(-c2nc(CN3CCC(C(=O)NCCc4ccc(C)cc4)CC3)c(C)o2)cc1	inconclusive: 2.82 µM [inhibitor, full curve, poor fit]
11	C=CCn1c(C)cc(C(=O)CSc2n[nH]c(N)n2)c1C	inactive
12	COc1cc(NC(=O)CN2CCN(c3ccccn3)CC2)cc(OC)c1OC	inconclusive: 25.1 µM [inhibitor, single point]
13	CC(C)(C)c1ccc(-c2noc(CCC(=O)NCC3CCCO3)n2)cc1 (configuration not stated)	inconclusive: 14.6 µM [inhibitor, partial curve, poor fit]
14	CC(=O)n1cc(C(C[N+](=O)[O-])SCCN)c2ccccc21 (configuration not stated)	inconclusive: 29.1 µM [inhibitor, single point]
15	Cc1ccc(C)c(NC(=O)Cn2cnc3c(oc4ccccc43)c2=O)c1	inactive
16	O=C1NC(=O)C(CCc2ccncc2)(CCc2ccncc2)C(=O)N1Cc1ccccc1	inconclusive: 35.5 µM [inhibitor, single point]
17	COCOCCn1cc(CN2CCS(=O)(=O)N(Cc3ccc(-c4ccc(Cl)c(Cl)c4)cc3)C(C)C2=O)nn1 (configuration not stated)	inactive
18	COC(=O)c1ccc(NC(=S)Nc2ccccn2)cc1	inconclusive: 1.41 µM [activator, partial curve, poor fit]
19	CCc1ccc(C2=CC(c3cccc(C)c3)n3c(nc4ccccc43)N2)cc1 (configuration not stated)	inconclusive: 12.6 µM [inhibitor, single point]

Next compounds follow:

Row | Structure (SMILES) | Potency
24 | Cc1ccc(NC(=O)NCc2nc3ccccc3n2C)cc1 | inactive
25 | O=C(c1cccc([N+](=O)[O-])c1)N1CCOCC1 | inactive
26 | CC1=C(C(=O)OC2CCCC2)C(c2ccc(C)o2)C2=C(CC(c3cccs3)CC2=O)N1 (configuration not stated) | inconclusive: 13 µM [inhibitor, partial curve, poor fit]
27 | CN(C)C(=O)Oc1ccc(Br)cc1C(=O)Nc1ccc(F)c(Cl)c1 | inactive
28 | COc1ccc(CC(=O)NCC2(c3ccc(OC)c(OC)c3)CCOCC2)cc1 | inconclusive: 2.24 µM [inhibitor, partial curve, poor fit]
29 | Cc1ccc(C)c(NC(=O)C2CC(O)CN2C(=O)OCc2ccccc2)c1 (configuration not stated) | inactive
30 | NC(=O)c1ccc(-c2ccc(Br)cc2)o1 | inactive
31 | Cc1ccc(S(=O)(=O)NC2=NCN(CC(=O)O)CN2)cc1 | inactive
32 | O=C(OCc1cn([C@H]2C[C@H](c3ccc(Cl)cc3)N(C(=O)c3cccs3)C[C@H]2O)nn1)c1ccccc1 | inconclusive: 22.3 µM [inhibitor, single point]
33 | CCNC(=O)N1CCN(CCCC(c2ccc(F)cc2)c2ccc(F)cc2)CC1 | inconclusive: 16.4 µM [inhibitor, single point]
34 | O=C(c1ccncc1)c1ccc(N2CCN(C3CC(=O)N(Cc4ccccc4)C3=O)CC2)cc1 (configuration not stated) | inconclusive: 12.6 µM [inhibitor, partial curve, poor fit]
35 | CCC(=O)Nc1ccc2c(c1)Cc1cc([N+](=O)[O-])ccc1-2 | inconclusive: 1 µM [activator, full curve]
36 | Cc1ccc(C)c(N2CCN(C(=O)Cn3cnc4sc(C)c(S(=O)(=O)N5CCN(c6ncccn6)CC5)c4c3=O)CC2)c1 | inactive
37 | Fc1ccc(C(OCCCc2cnc[nH]2)c2ccc(F)cc2)cc1 | inconclusive: 13 µM [inhibitor, partial curve]
38 | COc1ccc(N2CCN(C(=O)CN=C3NS(=O)(=O)C(c4ccc(C)cc4)=C3C)CC2)cc1 | inactive
39 | CCOC(=O)C1=C(COC(=O)/C=C/c2cccc(OC)c2OC)NC(=O)NC1C (configuration not stated) | inactive
40 | CCCCN(C)CC(O)Cn1cc(/C=C/C(=O)c2cccs2)c2ccccc21 (configuration not stated) | inconclusive: 14.1 µM [inhibitor, partial curve, poor fit]
41 | COc1ccc(NCC(=O)n2c(C)c(C)c3ccccc32)cc1OC | inconclusive: 17.8 µM [inhibitor, single point]
42 | CSc1nnc(-c2ccccc2Cl)o1 | inactive
43 | COc1ccccc1/C=C/C(=O)NC(=S)N1CCOCC1 | inconclusive: 15.8 µM [activator, single point]
44 | COC(=O)CCC(=O)Oc1ccc(OC(=O)CCC(=O)OC)cc1 | inactive
45 | CCN(CC)S(=O)(=O)c1ccc(NC(=O)CN(c2cccc(F)c2)S(C)(=O)=O)cc1 | inconclusive: 23.1 µM [inhibitor, partial curve]
46 | COc1ccc(N2CCN(C(c3ccccc3)c3nnnn3Cc3ccc(F)cc3)CC2)cc1 (configuration not stated) | inconclusive: 7.94 µM [inhibitor, partial curve, poor fit]

Row | Structure (SMILES) | Potency
47 | Clc1ccc(-c2ccc(CNCC3CCCO3)o2)cc1 (configuration not stated) | inconclusive: 3.16 µM [activator, full curve]
48 | CCc1cc(C(=O)NNC(=S)NCc2ccccc2)cs1 | inactive
49 | CCc1cc(C(c2ccc(OC)c(OC)c2)N2CCOCC2)c(NC(=O)c2ccccc2)s1 (configuration not stated) | inconclusive: 35.5 µM [inhibitor, single point]
50 | CCOc1ccc(C(C)=O)cc1CSc1nc(C)cc(C)n1 | inconclusive: 0.501 µM [activator, full curve, poor fit]
51 | CC(=O)c1ccc(NC(=O)Nc2ccc(S(=O)(=O)N3CCCC3)cc2)cc1 | inconclusive: 22.4 µM [inhibitor, single point]
52 | COc1cc2c(cc1OC)-c1cc(=Nc3c(C)cc(C)cc3C)n(C)c(=O)n1CC2 | inconclusive: 10.3 µM [inhibitor, partial curve]
53 | CCc1nc(C)cn1S(=O)(=O)c1cc(OC)c(C)cc1C | inconclusive: 11.2 µM [inhibitor, partial curve]
54 | Clc1ccc2nc(C3CCN(Cc4ccccc4)CC3)[nH]c2c1 | inconclusive: 0.206 µM [inhibitor, full curve, poor fit]
55 | N/C(=N\OC(=O)c1ccc(Cl)cc1[N+](=O)[O-])c1ccccn1 | inconclusive: 1.12 µM [activator, single point]
56 | COc1ccc(-n2ccnc(SCC(=O)NCc3ccc(C)cc3)c2=O)cc1Cl | inconclusive: 2 µM [inhibitor, partial curve, poor fit]
57 | O=C(c1cc2ccccc2oc1=O)N(Cc1ccccc1)Cc1ccc2c(c1)OCO2 | inconclusive: 3.26 µM [inhibitor, partial curve, poor fit]
58 | Cc1cc(C)nc(N2CCCC(C(=O)Nc3ccc4c(c3)OCCO4)C2)n1 (configuration not stated) | inconclusive: 13 µM [activator, single point]
59 | Cc1c(N=C2NC(=O)/C(=C/c3ccc(O)cc3)S2)c(=O)n(-c2ccccc2)n1C | inconclusive: 9.2 µM [activator, partial curve]
60 | O=C(CN1C(=O)/C(=C\c2ccc(C(F)(F)F)cc2)Sc2ccccc21)NCc1ccco1 | inconclusive: 29.1 µM [inhibitor, single point]
61 | CC(C)CCNC(=O)C(c1ccncc1)N(Cc1cccs1)C(=O)Cn1nnc(-c2ccc(F)cc2)n1 (configuration not stated) | inactive
62 | O=C(/C=C/Nc1ccc([N+](=O)[O-])cc1Br)c1cccc2ccccc12 | inconclusive: 0.411 µM [activator, full curve, poor fit]
63 | Cc1oc(-c2ccccc2Cl)nc1CS(=O)CC(=O)N1CCN(c2cccc(C(F)(F)F)c2)CC1 (configuration not stated) | inconclusive: 20 µM [inhibitor, single point]
64 | CCN(CC)S(=O)(=O)c1ccc(O)c(C(=O)OCC(=O)Nc2ccc(OC(F)(F)F)cc2)c1 | inconclusive: 31.6 µM [inhibitor, single point]
65 | COc1ccc(OC)c(CN(CCN2CCOCC2)C(=O)Nc2ccccc2)c1 | inactive
66 | CCOC(=O)/C(C#N)=C\N(C)C | inactive
67 | Clc1ccc(-n2nnnc2-c2cnc3ccccc3c2-c2ccccc2)cc1 | inactive
